Assay results: patent US5527882A, “Polypeptide having an amino acid replaced with N-benzylglycine” (The Regents of the University of California, priority 1994, dated 1996)
At least one peptide structure holds a part that was inferred or is arguable (an end, a ring closure or a residue). Square brackets hold non-standard residues; d marks the D form. Ends that are not written are not given here. Peptide text beside a SMILES is read from it. Nphe = O=C(O)CNCc1ccccc1

Assays:
[1] = system: rat uterus; test: Smooth muscle bioassay: rat uterus contraction; assay type: cell-based; conditions: bradykinin = 100%
Description: (§1) See Vavrek supra for assay methods.
Rat Uterus, rat uterus contraction;

[2] = system: guinea pig ileum; test: Smooth muscle bioassay: guinea pig ileum contraction; assay type: cell-based; conditions: bradykinin = 100%
Description: as §1
GP Ileum, guinea pig ileum contraction;

[3] = system: rat blood pressure; test: Rat blood pressure assay; assay type: in vivo; conditions: bradykinin = 100%; for Rat Blood Pressure IA, potency relative to bradykinin: intraaortic administration; for Rat Blood Pressure IV, potency relative to bradykinin: intravenous administration
Description: | See Vavrek supra for assay methods.

[4] = Bioassays as a whole (smooth muscle and rat blood pressure): agonist or antagonist character; conditions: result in words

Compound | Smooth Muscle Rat Uterus (rat uterus contraction), potency relative to bradykinin [1] | Smooth Muscle GP Ileum (guinea pig ileum contraction), potency relative to bradykinin [2] | Rat Blood Pressure IA, potency relative to bradykinin [3] | Rat Blood Pressure IV, potency relative to bradykinin [3] | Agonist or antagonist character relative to bradykinin [4] | Agonist or antagonist character relative to bradykinin ([4]; listed as (N-BzlGly^7)-BK)
N=C(N)NCCC[C@H](NC(=O)[C@H](Cc1ccccc1)NC(=O)[C@@H](Cc1ccccc1)NC(=O)[C@H](CO)NC(=O)[C@H](Cc1ccccc1)NC(=O)CNC(=O)[C@@H]1CCCN1C(=O)[C@@H]1CCCN1C(=O)[C@@H](N)CCCNC(=N)N)C(=O)O [[D-Phe^7]-Bradykinin, (D-Phe^7)-bradykinin] (H-RPPGFS[dF]FR-OH) | 1% | 5% | 2% | 4% | Antagonist | –
N=C(N)NCCC[C@H](NC(=O)[C@H](Cc1ccccc1)NC(=O)CN(Cc1ccccc1)C(=O)[C@H](CO)NC(=O)[C@H](Cc1ccccc1)NC(=O)CNC(=O)[C@@H]1CCCN1C(=O)[C@@H]1CCCN1C(=O)[C@@H](N)CCCNC(=N)N)C(=O)O [[NBzlGly^7]-Bradykinin, (N-benzylglycine^7)-bradykinin] (H-RPPGFS[Nphe]FR-OH) | 27% | 36% | 97% | 337% | potent agonist | potent BK-agonist
RPPGFSFFR [[Phe^7]-Bradykinin, (Phe^7)-BK] | 0.6% | 0.1% | 0% | 0% | – | –
